{
  "source": "PubChem BioAssay AID540256",
  "about": "(National Center for Advancing Translational Sciences (NCATS), 2011)",
  "note": "Out of some 300,000 compounds screened, about 3,700 (1.2%) were called active. The inconclusive results got no clear call from the source; some entries with a clear call stand among them for comparison. The call rests on the fitted dose curve; tested in HEK293 cells. A potency beside an inconclusive call is a rough fit, not a confirmed value. On the % scale 0 is the no-effect control and ±100 the full control effect; potency means the concentration at half of the fitted maximal effect.",
  "data": [
    {"assay": "qHTS for Inhibitors of binding or entry into cells for Lassa Virus; further: nearly all actives have a fitted effect of over 50% in size", "conditions": "Lassa virus pseudotype entry inhibition, cell reporter; activity change, negative = inhibition: at 37.9 µM (top of the series) unless noted", "values": [
      {"smiles": "COC(=O)CSc1ncc(C#N)c(N)n1", "Potency": "inconclusive: 29.1 µM [activator, single point]"},
      {"smiles": "Clc1cnc(N/N=C/c2ccncc2)c(Cl)c1", "activity change, negative = inhibition": "inactive: 8.36% [at 46.1 µM]"},
      {"smiles": "O=C1CN(C(=O)COC(=O)CNS(=O)(=O)/C=C/c2ccccc2)c2ccccc2N1", "activity change, negative = inhibition": "inactive: -1.05%"},
      {"smiles": "CCOC(=O)C1(CC2CC2)CCN(Cc2cc(Cl)c(O)c(OC)c2)CC1", "Potency": "inconclusive: 35.5 µM [inhibitor, partial curve, poor fit]"},
      {"smiles": "COc1cc(CCC(=O)NCc2ccc3c(c2)CCN3C(=O)c2ccccc2)cc(OC)c1OC", "activity change, negative = inhibition": "inactive: 2.29% [at 46.1 µM]"},
      {"smiles": "O=C(Nc1nc2ccccc2[nH]1)c1cc(F)cc(F)c1", "activity change, negative = inhibition": "inactive: 9.43% [at 46.1 µM]"},
      {"smiles": "Cc1ccc(OCCn2c(CCCO)nc3ccccc32)cc1", "activity change, negative = inhibition": "inactive: -3.22%"},
      {"smiles": "Cc1ccc(OCCCCN2CCC(C)CC2)cc1", "Potency": "inconclusive: 22.4 µM [inhibitor, single point]"},
      {"smiles": "O=C(Nc1nc2c(s1)CCCC2)C1COc2ccccc2O1", "note": "(stereo not given)", "Potency": "active: 5.8 µM"},
      {"smiles": "O=C(Nc1ccc(S(=O)(=O)N2CCCC2)cc1)c1ccc(CN2CCc3ccccc3C2)cc1", "Potency": "inconclusive: 4.47 µM [inhibitor, partial curve]"},
      {"smiles": "Cc1ccc(-n2c(SCC(=O)N/N=C/c3ccc(C)s3)nnc2-c2ccccc2)cc1", "Potency": "inconclusive: 12.6 µM [inhibitor, partial curve]"},
      {"smiles": "O=C(c1ccc(Cn2c(=O)[nH]c3ccccc3c2=O)cc1)N1CCN(c2ccc(Cl)cc2)CC1", "activity change, negative = inhibition": "inactive: -18%"},
      {"smiles": "Cc1ccc(-c2c[n+](CC(=O)N3c4ccccc4Sc4ccccc43)c3n2CCC3)cc1", "activity change, negative = inhibition": "inactive: -19.5%"},
      {"smiles": "O=C(Cc1ccc(Cl)c(Cl)c1)NC1CCCCCC1", "Potency": "inconclusive: 25.1 µM [activator, partial curve, poor fit]"},
      {"smiles": "O=C(CCSc1nc(-c2ccco2)cc(C(F)(F)F)n1)NCCc1ccccc1", "Potency": "inconclusive: 0.708 µM [inhibitor, single point]"},
      {"smiles": "O=C(CCCC(=O)N(c1ccc2c(c1)OCCO2)C(C(=O)NC1CCCCC1)c1ccc(F)cc1)Nc1ccccn1", "note": "(stereo not given)", "activity change, negative = inhibition": "inactive: 1.72%"},
      {"smiles": "CC(C)Oc1ccc(S(=O)(=O)N2CCOCC2)cc1NC(=O)C1CSC2(C)CCC(=O)N12", "note": "(stereo not given)", "Potency": "inconclusive: 10 µM [inhibitor, partial curve, poor fit]"},
      {"smiles": "CCCOC(=O)c1ccc(NC(=O)c2cccc(S(=O)(=O)N3CCN(C(C)=O)CC3)c2)cc1", "Potency": "inconclusive: 31.6 µM [inhibitor, single point]"},
      {"smiles": "COc1ccc(C(=O)Nc2ccc(C(=O)Nc3nccs3)cc2)cc1[N+](=O)[O-]", "activity change, negative = inhibition": "inactive: -3.48%"},
      {"smiles": "C/C(=N/NC(=O)c1ccco1)c1ccc(NC(=O)c2ccc(F)cc2)cc1", "Potency": "inconclusive: 6.51 µM [activator, single point]"},
      {"smiles": "COc1ccc(C(=O)Nc2ccccc2Cc2ccccc2)c(OC)c1", "activity change, negative = inhibition": "inactive: -19.5%"},
      {"smiles": "CC1=Nc2cc(C(=O)NCc3ccccc3Cl)ccc2Sc2c(C)ccc(C)c21", "Potency": "inconclusive: 8.91 µM [inhibitor, partial curve, poor fit]"},
      {"smiles": "Cc1cc(Nc2nc3ccccc3[nH]c2=O)n(-c2ccccc2)n1", "Potency": "inconclusive: 35.5 µM [inhibitor, single point]"},
      {"smiles": "O=C(c1cc(F)c(F)cc1Cl)N1CCN(S(=O)(=O)c2cccs2)CC1", "Potency": "inconclusive: 0.501 µM [inhibitor, full curve, poor fit]"},
      {"smiles": "Cc1cc(F)ccc1NC(=O)C1CSC2(C)CCC(=O)N12", "note": "(stereo not given)", "activity change, negative = inhibition": "inactive: -10.2% [at 46.1 µM]"},
      {"smiles": "CN(c1ccccc1)S(=O)(=O)c1ccc(C(=O)NCc2ccccc2CN2CCCC2)cc1", "activity change, negative = inhibition": "inactive: 12.5%"},
      {"smiles": "CCN(CC(=O)NC(C)C)C(=O)[C@@H](NC(=O)c1ccco1)C(C)C", "Potency": "inconclusive: 0.794 µM [inhibitor, partial curve, poor fit]"},
      {"smiles": "Cc1ccccc1-n1c(C)cc(/C=N/NC(=O)c2ccc(CN3CCOCC3)cc2)c1C", "Potency": "inconclusive: 29.1 µM [inhibitor, single point]"},
      {"smiles": "Cc1ccccc1-c1cc2c(nn1)-c1ccccc1C2=O", "Potency": "inconclusive: 35.5 µM [inhibitor, single point]"},
      {"smiles": "COCCN(C(=O)/C=C/c1cccc([N+](=O)[O-])c1)c1c(N)n(Cc2ccccc2)c(=O)[nH]c1=O", "Potency": "inconclusive: 0.92 µM [activator, partial curve]"},
      {"smiles": "O=C(Nc1ccn(Cc2c(F)c(F)cc(F)c2F)n1)c1ccc(COc2ccc(Cl)cc2Cl)o1", "Potency": "inconclusive: 32.6 µM [inhibitor, single point]"},
      {"smiles": "O=C(NC(=S)Nc1ccccn1)c1ccco1", "Potency": "inconclusive: 0.794 µM [activator, partial curve]"},
      {"smiles": "O=C(O)CCCC(=O)Nc1ccc(OCc2nc3ccccc3s2)cc1", "Potency": "inconclusive: 7.08 µM [activator, partial curve, poor fit]"},
      {"smiles": "COc1cc(C(C(=O)NC2CCCC2)N(Cc2ccco2)C(=O)c2snc(C(N)=O)c2N)cc(OC)c1OC", "note": "(stereo not given)", "activity change, negative = inhibition": "inactive: -3.39%"},
      {"smiles": "O=C(CSc1nnc2c(n1)[nH]c1ccc(F)cc12)NC1CC1", "Potency": "inconclusive: 1.58 µM [inhibitor, partial curve, poor fit]"},
      {"smiles": "CN(C(=O)Nc1ccc(C(C)(C)C)cc1)C1CCCCC1", "Potency": "inconclusive: 2 µM [inhibitor, partial curve, poor fit]"},
      {"smiles": "O=C(Nc1c(C(=O)N2CCOCC2)oc2ccccc12)c1ccccc1Cl", "Potency": "inconclusive: 22.4 µM [inhibitor, single point]"},
      {"smiles": "Cc1ccc(-n2nc(CO)c(C(=O)NCCCCc3ccccc3)n2)cc1C", "activity change, negative = inhibition": "inactive: 5.51% [at 46.1 µM]"},
      {"smiles": "Cc1ccc(-c2nnc(Nc3cccc(Cl)c3)c3ccccc23)cc1S(=O)(=O)N1CCCCC1", "activity change, negative = inhibition": "inactive: -24.9% [at 46.1 µM]"},
      {"smiles": "CC1(c2ccc(Cl)cc2)NC(=O)N(CC(=O)N2CCCC2)C1=O", "note": "(stereo not given)", "activity change, negative = inhibition": "inactive: 0.637%"},
      {"smiles": "CCc1ccc(C(=O)COC(=O)c2nn(C)c(=O)c3ccccc23)cc1", "activity change, negative = inhibition": "inactive: 7.85%"},
      {"smiles": "COc1ccc2oc(C(=O)OCC(=O)N(Cc3ccccc3)C(C)(C)C)c(C)c2c1", "Potency": "inconclusive: 35.5 µM [inhibitor, single point]"},
      {"smiles": "Cc1nc2cccnc2n1-c1cccc(C(=O)N2CCN(c3cccc(Cl)c3)CC2)c1", "Potency": "inconclusive: 7.94 µM [inhibitor, partial curve, poor fit]"},
      {"smiles": "COc1ccc(-c2cc(C(=O)N3CCOCC3)c3ccccc3n2)cc1OC", "activity change, negative = inhibition": "inactive: 5.15% [at 46.1 µM]"},
      {"smiles": "Cc1cc(NC(=O)c2ccc(COc3ccc(Cl)c(C)c3)o2)no1", "activity change, negative = inhibition": "inactive: -36.4% [at 14.3 µM]"},
      {"smiles": "COC(=O)c1ccc(-c2ccc(F)cc2)nc1C", "Potency": "inconclusive: 2.51 µM [activator, partial curve]"},
      {"smiles": "CC1=C([N+](=O)[O-])C(c2ccccc2C(F)(F)F)NC(=O)N1C", "note": "(stereo not given)", "Potency": "inconclusive: 1.26 µM [inhibitor, single point]"},
      {"smiles": "O=C(CSc1nnc(-c2ccccn2)n1Cc1ccccc1)NC1CCCC1", "activity change, negative = inhibition": "inactive: -11.2%"},
      {"smiles": "COc1ccccc1C(=O)NCCn1cc(SCC(=O)Nc2ccccc2F)c2ccccc21", "Potency": "inconclusive: 35.5 µM [inhibitor, single point]"},
      {"smiles": "CN(C(=O)c1coc(=O)c2ccccc12)c1ccccc1Cl", "activity change, negative = inhibition": "inactive: -14.5% [at 46.1 µM]"},
      {"smiles": "CC(C)(C)n1ncc2c(=O)n(CC(=O)c3ccccc3)cnc21", "Potency": "inconclusive: 6.31 µM [activator, full curve, poor fit]"},
      {"smiles": "CCOc1ccccc1N/C(=C(/C(Cl)=C(Cl)Cl)[N+](=O)[O-])n1cncn1", "Potency": "inconclusive: 35.5 µM [inhibitor, single point]"},
      {"smiles": "CC(C)CCNC(=O)c1ccccc1SCC(=O)NC1CCCCCCC1", "activity change, negative = inhibition": "inactive: -0.121%"},
      {"smiles": "Cc1ccc(NCSc2ccc(Cl)cc2)cc1", "activity change, negative = inhibition": "inactive: 20.5% [at 46.1 µM]"},
      {"smiles": "CCCCN(CC)C(=O)CSc1nc2n[nH]c(C)c2c(=N)n1-c1cccc(Cl)c1", "Potency": "inconclusive: 20 µM [inhibitor, single point]"},
      {"smiles": "Cc1ccc(C(=O)NC2CCCCC2)cc1-c1ccc(C(=O)NCC2CC2)cc1", "Potency": "active: 1.41 µM"},
      {"smiles": "CCCCN(C)C(=O)c1cc2cc([N+](=O)[O-])cc(OC)c2oc1=O", "activity change, negative = inhibition": "inactive: 14.6%"},
      {"smiles": "CCOc1ccccc1C(=O)OCC(=O)Nc1ccc(OC(F)F)cc1", "activity change, negative = inhibition": "inactive: 4.8%"},
      {"smiles": "CCCNC(=O)c1c[nH]c2ccc(S(=O)(=O)N(C)c3ccc(OCC)cc3)cc2c1=O", "Potency": "inconclusive: 20 µM [inhibitor, single point]"},
      {"smiles": "O=C(O)c1cc(=O)c2ccccc2o1", "Potency": "inconclusive: 0.1 µM [activator, full curve, poor fit]"},
      {"smiles": "Cc1ccc(-c2csc(NC(=O)CN3CCC(C(N)=O)CC3)n2)cc1", "Potency": "inconclusive: 12.6 µM [inhibitor, partial curve, poor fit]"},
      {"smiles": "COC(=O)c1ccc(NC(=O)CC2C(=O)N(c3cccc(OC)c3)C(=O)N2Cc2cccs2)cc1", "note": "(stereo not given)", "Potency": "inconclusive: 4.47 µM [inhibitor, full curve, poor fit]"},
      {"smiles": "C=CCSc1nnc2c(n1)[nH]c1c(C)cccc12", "activity change, negative = inhibition": "inactive: -3.87%"},
      {"smiles": "CCOc1ccc(-c2cc(CCCC(=O)Nc3cc(OC)ccc3OC)no2)cc1", "Potency": "inconclusive: 0.0411 µM [inhibitor, full curve, poor fit]"},
      {"smiles": "COc1cccc(C(=O)NCC(c2cccs2)N2CCc3ccccc32)c1", "note": "(stereo not given)", "Potency": "inconclusive: 11.2 µM [inhibitor, partial curve, poor fit]"},
      {"smiles": "O=C(NCCc1csc(-c2ccccc2)n1)c1c(F)cccc1Cl", "Potency": "inconclusive: 5.01 µM [inhibitor, partial curve, poor fit]"},
      {"smiles": "CCc1ccc(NC(=O)N2CCOc3ccc(Cl)cc32)cc1", "activity change, negative = inhibition": "inactive: 13.3% [at 46.1 µM]"},
      {"smiles": "O=C(Nc1ccc2c(c1)OCO2)c1cccs1", "Potency": "inconclusive: 5.17 µM [activator, single point]"},
      {"smiles": "Cc1ccc(C)c(C(=O)CCC(=O)N2CCN(c3ncccn3)CC2)c1", "activity change, negative = inhibition": "inactive: 15.3% [at 46.1 µM]"},
      {"smiles": "COc1cc(Cl)c(S(=O)(=O)NCCc2c(C)[nH]c3c(C)cccc23)cc1Cl", "Potency": "inconclusive: 8.91 µM [inhibitor, partial curve, poor fit]"}
    ]}
  ]
}
